Measured values published in patent US20090221598A1, “Use of Sanglifehrin in HCV” (priority 2005, published 2009).
Some entries share one result that the patent states for a list of compounds.

System: human monocytic cell line THP1
Experiment: Cytotoxicity, MTT read-out
Format: cell-based
Settings: THP1 cells with IFNgamma and LPS, after 24 h incubation
Protocol: Cytotoxicity is determined using the human monocytic cell line THP1 (5×10^4 cells/well) which are incubated in the presence of IFNgamma (100 U/ml) and LPS (5 microgram/ml) plus test compound (up to 10 micromolar) for 24 to 72 h at 37° C. Living cells are quantified using the colourimetric read-out MTT which measures mitochondrial dehydrogenase enzymatic activity in living cells (Mossman 1983). Macrolides of the invention, e.g. compounds of formula IX and their pharmaceutically acceptable salts, e.g. Sanglifehrins A, B, C and D, have IC50 of about 1000-5000 nM after 24 h incubation in this assay. (Mossman T. J. (1983), Rapid calorimetric assay for cellular growth and survival: application to proliferation and cytotoxic assays, J. Imm. Methods, 65, 55-63).

In the case of Sanglifehrin A, the IC50 is reported as 1000 to 5000 nM.
